For at least one entry, the source does not settle the construct or the ends of the probe. For part of these data: Protein sequences can lack the tags named with them.
Columns and labels:
Experiment in all cases: protein microarray
Details in all cases: 10-fold cold unmethylated competitor; 5mC at CpG (SssI, both strands); recombinant protein; protein details: GST (N-terminal); label: Cy5
[1] = biological target: T1, NRF1 (Homo sapiens) (UniProt Q16656)
T1 sequence (looked up, limits assumed): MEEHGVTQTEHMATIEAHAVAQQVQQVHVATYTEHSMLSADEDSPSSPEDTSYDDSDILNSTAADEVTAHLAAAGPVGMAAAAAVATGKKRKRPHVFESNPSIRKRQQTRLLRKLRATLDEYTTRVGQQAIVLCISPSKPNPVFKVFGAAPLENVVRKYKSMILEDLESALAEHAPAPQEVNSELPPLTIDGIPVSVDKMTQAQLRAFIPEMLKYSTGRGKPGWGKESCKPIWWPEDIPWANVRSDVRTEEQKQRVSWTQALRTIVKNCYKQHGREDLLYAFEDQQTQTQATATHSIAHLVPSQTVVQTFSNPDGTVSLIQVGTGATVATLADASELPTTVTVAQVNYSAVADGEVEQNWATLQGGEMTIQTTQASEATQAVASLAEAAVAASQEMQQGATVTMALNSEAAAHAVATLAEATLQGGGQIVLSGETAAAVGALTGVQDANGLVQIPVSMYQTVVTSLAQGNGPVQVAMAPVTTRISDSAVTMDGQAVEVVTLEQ

Chains of the proteins cited; added tags and fusions are not shown. Lines headed by an entry give the natural chain unless they say otherwise; changes in a name come on top.
UniProt O00716: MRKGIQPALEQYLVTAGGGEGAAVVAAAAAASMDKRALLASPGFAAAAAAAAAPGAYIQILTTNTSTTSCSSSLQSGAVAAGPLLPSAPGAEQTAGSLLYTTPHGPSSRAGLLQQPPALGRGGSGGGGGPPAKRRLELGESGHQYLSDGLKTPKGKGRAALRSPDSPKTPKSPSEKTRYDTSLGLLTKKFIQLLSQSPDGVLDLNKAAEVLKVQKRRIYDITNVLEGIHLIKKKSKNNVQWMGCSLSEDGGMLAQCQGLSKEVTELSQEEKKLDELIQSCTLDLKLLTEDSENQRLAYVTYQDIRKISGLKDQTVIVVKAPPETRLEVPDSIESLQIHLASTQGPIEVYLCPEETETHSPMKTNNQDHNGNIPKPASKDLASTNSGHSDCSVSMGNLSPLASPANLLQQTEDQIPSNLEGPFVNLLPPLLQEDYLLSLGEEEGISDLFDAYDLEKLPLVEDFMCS
UniProt Q9BWM5: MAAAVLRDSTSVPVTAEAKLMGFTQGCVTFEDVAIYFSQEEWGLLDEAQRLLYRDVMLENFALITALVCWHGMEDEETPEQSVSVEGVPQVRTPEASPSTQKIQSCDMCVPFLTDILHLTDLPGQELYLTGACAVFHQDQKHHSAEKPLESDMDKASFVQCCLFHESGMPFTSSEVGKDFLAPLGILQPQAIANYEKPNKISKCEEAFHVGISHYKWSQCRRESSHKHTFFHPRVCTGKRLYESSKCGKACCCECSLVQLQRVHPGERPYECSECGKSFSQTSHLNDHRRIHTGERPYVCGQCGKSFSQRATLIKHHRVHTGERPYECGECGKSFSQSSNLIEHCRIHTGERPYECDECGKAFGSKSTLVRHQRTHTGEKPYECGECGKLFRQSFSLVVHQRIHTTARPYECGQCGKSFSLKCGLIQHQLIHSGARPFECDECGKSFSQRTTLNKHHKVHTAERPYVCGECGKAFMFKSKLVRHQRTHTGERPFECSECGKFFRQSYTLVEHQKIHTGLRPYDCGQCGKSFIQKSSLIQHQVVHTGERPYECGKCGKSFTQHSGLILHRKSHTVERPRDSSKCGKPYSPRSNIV
UniProt P37231: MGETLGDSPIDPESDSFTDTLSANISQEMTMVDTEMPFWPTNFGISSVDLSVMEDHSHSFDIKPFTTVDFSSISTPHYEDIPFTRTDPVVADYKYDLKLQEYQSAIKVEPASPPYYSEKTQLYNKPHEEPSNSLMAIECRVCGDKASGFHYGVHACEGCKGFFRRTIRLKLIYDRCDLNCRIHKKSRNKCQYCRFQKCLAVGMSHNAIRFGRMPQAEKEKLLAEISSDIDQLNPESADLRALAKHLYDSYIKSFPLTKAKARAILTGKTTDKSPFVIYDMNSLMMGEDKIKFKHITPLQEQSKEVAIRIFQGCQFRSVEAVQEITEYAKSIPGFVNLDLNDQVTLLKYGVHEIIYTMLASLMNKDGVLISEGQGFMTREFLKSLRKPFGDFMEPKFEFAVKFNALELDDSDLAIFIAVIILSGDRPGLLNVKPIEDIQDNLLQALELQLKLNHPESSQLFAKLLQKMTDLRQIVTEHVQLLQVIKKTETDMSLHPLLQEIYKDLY
UniProt P43694: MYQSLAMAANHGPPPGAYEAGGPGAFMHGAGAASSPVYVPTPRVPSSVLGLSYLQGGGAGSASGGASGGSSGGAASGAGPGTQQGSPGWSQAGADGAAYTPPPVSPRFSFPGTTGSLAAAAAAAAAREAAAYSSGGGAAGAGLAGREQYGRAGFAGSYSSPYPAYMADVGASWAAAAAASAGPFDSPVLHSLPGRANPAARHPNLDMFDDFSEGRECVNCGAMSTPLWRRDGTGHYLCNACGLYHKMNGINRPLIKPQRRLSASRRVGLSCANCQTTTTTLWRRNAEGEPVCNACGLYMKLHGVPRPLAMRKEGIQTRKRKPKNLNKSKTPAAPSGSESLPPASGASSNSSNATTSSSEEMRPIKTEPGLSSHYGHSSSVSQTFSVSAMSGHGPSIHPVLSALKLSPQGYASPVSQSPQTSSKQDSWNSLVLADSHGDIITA
UniProt Q8NC26: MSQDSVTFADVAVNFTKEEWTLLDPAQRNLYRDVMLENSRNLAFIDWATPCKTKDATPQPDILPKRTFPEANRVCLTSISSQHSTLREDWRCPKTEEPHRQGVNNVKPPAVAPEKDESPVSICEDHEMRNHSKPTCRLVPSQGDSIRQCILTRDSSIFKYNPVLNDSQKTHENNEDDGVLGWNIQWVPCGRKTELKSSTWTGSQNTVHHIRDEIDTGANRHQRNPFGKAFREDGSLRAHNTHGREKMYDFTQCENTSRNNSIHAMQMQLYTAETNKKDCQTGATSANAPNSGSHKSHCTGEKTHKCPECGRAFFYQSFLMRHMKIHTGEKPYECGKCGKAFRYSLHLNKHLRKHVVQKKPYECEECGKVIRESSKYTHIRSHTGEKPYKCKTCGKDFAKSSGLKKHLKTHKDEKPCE
UniProt P20719: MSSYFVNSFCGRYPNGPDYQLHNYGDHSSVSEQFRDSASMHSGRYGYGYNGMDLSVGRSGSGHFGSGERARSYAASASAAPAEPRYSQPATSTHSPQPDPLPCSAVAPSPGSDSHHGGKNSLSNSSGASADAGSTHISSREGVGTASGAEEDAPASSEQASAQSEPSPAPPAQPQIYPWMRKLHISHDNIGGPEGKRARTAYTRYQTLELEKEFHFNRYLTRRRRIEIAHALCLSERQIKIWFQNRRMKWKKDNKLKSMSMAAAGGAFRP
UniProt Q8IW36: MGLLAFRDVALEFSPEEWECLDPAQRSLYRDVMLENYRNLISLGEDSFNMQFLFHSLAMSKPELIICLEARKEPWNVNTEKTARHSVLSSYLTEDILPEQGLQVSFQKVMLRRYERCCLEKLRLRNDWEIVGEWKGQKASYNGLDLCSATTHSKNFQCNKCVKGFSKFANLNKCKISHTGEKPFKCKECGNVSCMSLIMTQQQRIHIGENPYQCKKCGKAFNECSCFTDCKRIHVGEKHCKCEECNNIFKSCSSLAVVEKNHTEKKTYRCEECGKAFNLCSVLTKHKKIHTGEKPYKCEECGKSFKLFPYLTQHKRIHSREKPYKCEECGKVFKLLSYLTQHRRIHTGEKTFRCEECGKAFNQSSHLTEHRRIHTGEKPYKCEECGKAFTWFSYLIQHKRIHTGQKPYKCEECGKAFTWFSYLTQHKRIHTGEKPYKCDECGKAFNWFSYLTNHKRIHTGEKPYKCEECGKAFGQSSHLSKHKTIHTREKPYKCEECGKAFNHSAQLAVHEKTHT
UniProt P19793: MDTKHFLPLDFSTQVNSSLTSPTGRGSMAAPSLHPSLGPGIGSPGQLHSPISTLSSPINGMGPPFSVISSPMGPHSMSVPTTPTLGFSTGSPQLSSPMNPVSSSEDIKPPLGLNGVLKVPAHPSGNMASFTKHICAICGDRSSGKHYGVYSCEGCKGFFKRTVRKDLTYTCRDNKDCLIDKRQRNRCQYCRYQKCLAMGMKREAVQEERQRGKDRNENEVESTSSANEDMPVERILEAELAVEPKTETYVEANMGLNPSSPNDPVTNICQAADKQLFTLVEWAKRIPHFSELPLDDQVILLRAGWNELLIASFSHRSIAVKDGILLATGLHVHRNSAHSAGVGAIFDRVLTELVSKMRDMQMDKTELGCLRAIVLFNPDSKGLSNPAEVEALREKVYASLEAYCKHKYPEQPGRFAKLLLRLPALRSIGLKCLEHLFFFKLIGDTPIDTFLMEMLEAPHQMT

[2] = biological target: T2, ZCCHC7 (Homo sapiens) (UniProt Q8N3Z6)
T2 sequence (looked up, limits assumed): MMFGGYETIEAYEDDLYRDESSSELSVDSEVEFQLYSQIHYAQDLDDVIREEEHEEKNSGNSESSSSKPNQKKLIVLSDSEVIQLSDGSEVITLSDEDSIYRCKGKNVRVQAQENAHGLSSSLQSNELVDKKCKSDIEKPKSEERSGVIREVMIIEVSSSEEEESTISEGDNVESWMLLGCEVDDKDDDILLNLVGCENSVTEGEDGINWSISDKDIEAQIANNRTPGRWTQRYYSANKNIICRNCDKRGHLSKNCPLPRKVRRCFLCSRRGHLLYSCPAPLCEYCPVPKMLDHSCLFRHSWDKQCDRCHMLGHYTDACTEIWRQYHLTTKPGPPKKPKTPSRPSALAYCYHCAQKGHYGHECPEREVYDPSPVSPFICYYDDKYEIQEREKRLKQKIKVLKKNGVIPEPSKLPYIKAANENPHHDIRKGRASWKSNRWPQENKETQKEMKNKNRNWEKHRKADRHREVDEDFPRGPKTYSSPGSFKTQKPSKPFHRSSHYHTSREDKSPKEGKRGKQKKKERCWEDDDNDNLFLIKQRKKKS

[3] = biological target: T3, SCAPER (Homo sapiens) (UniProt Q9BY12)
T3 sequence (looked up, limits assumed): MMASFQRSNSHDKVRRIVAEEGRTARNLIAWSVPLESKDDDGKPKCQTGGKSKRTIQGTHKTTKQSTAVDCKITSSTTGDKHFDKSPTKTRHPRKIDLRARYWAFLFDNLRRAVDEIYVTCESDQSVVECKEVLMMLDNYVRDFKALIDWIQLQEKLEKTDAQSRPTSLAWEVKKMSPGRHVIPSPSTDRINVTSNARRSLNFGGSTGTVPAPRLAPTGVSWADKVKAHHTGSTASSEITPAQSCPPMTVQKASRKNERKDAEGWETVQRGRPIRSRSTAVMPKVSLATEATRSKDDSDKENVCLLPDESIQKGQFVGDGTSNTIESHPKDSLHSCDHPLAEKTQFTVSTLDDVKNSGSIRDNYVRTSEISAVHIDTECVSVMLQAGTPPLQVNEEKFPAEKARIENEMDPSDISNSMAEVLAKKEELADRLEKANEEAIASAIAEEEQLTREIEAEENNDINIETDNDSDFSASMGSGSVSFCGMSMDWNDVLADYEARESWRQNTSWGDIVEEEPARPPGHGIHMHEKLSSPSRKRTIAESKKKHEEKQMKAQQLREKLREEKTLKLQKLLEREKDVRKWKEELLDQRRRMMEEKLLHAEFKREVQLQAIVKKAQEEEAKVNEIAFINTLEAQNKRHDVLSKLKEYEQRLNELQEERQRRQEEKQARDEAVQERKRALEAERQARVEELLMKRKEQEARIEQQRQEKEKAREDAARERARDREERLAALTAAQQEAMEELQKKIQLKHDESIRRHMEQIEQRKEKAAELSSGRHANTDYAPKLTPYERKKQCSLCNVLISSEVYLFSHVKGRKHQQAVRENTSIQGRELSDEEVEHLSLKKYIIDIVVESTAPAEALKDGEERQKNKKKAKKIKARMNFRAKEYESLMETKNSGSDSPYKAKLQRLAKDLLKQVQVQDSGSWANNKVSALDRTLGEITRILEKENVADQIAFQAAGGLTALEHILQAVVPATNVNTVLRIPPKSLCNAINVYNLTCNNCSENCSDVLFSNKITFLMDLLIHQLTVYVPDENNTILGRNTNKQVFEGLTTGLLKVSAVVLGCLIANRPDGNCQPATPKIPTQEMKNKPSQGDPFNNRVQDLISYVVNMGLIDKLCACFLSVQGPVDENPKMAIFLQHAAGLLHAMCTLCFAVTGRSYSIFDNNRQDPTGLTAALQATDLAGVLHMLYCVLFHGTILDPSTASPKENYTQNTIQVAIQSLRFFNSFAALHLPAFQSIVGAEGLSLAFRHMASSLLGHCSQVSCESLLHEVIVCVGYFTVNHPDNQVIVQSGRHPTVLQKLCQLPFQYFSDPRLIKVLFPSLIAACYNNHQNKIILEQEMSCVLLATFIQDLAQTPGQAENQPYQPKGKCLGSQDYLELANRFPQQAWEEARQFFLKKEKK

[4] = biological target: T4, RNF138 (Homo sapiens) (UniProt Q8WVD3)
T4 sequence (looked up, limits assumed): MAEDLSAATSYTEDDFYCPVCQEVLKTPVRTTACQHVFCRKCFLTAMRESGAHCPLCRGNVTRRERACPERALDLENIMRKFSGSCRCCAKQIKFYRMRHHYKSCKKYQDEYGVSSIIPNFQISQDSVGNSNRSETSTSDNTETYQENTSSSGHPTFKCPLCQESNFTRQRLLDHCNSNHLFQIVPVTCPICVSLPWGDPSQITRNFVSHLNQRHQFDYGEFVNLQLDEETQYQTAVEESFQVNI

[5] = biological target: E2F3 (Homo sapiens) (UniProt O00716)
[6] = biological target: ZNF416 (Homo sapiens) (UniProt Q9BWM5)
[7] = biological target: PPARG (Homo sapiens) (UniProt P37231)
[8] = biological target: GATA4 (Homo sapiens) (UniProt P43694)
[9] = biological target: ZNF114 (Homo sapiens) (UniProt Q8NC26)
[10] = biological target: HOXA5 (Homo sapiens) (UniProt P20719)
[11] = biological target: ZNF695 (Homo sapiens) (UniProt Q8IW36)
[12] = biological target: RXRA (Homo sapiens) (UniProt P19793)

Measured: binding result

ACGGAGTAAAAACGGAGTACCCTATAGTGAGTGCTATTA (double strand) [M455]
not listed: [11] | [12]
binds: all other assays above

AGAGTCCGTTTAGAGTCCGCCCTATAGTGAGTGCTATTA (double strand) [M432]
binds: [3] | [4] | [5] | [6] | [7] | [9] | [10]

AGCGGCGAAAAGCGGCGCCCTATAGTGAGTGCTATTA (double strand) [M291]
binds: [1] | [3] | [5] | [6] | [11]

AGGTCGTGCAAAAGGTCGTGCCCCTATAGTGAGTGCTATTA (double strand) [M399]
not listed: [1] | [12]
binds: all other assays above

CCGCTGCAAACCGCTGCCCCTATAGTGAGTGCTATTA (double strand) [M297]
binds: [5] | [6] | [7] | [11] | [9]

CCTCGGCCGCCCCCTCGCGGCAAACCTCGGCCGCCCCCTCGCGGCCCCTATAGTGAGTGCTATTA (double strand) [M30]
not listed: [4] | [7] | [10] | [11]
binds: all other assays above

CGCACGCGCAAACGCACGCGCCCCTATAGTGAGTGCTATTA (double strand) [M63]
binds: [12] | [5] | [6] | [9]

CGCCTGCGCAAACGCCTGCGCCCCTATAGTGAGTGCTATTA (double strand) [M61]
binds: [4] | [10]

CGGCAGCTTTCGGCAGCCCCTATAGTGAGTGCTATTA (double strand) [M308]
not listed: [1] | [2] | [4]
binds: all other assays above

CGGGCAAAGGCCAAAACGGGCAAAGGCCACCCTATAGTGAGTGCTATTA (double strand) [M26]
not listed: [1] | [5]
binds: all other assays above

CGTCACTTCAAACGTCACTTCCCCTATAGTGAGTGCTATTA (double strand) [M69]
binds: [1] | [3] | [5] | [6] | [8] | [9] | [10]

CGTTGATCTTTCGTTGATCCCCTATAGTGAGTGCTATTA (double strand) [M415]
not listed: [1] | [4] | [5] | [11]
binds: all other assays above

GAAAGGCGAAAAGAAAGGCGACCCTATAGTGAGTGCTATTA (double strand) [M391]
binds: [5] | [6] | [7] | [11] | [8] | [9]

GCGCGCGCGAAAGCGCGCGCGCCCTATAGTGAGTGCTATTA (double strand) [M212]
binds: [3] | [5] | [6] | [7] | [11] | [8] | [9]

GGCGCTCGCTGGTGACGAAAGGCGCTCGCTGGTGACGCCCTATAGTGAGTGCTATTA (double strand) [M205]
binds: [1] | [5] | [6] | [11] | [9]

GGGTACGGAAAGGGTACGGCCCTATAGTGAGTGCTATTA (double strand) [M451]
binds: [12] | [3] | [4] | [6] | [8] | [9] | [10]

TTCCGCCAAATTCCGCCCCCTATAGTGAGTGCTATTA (double strand) [M82]
binds: [3] | [4] | [5] | [6] | [8] | [9] | [10]

Source: publication PMC3762332
